According to US10766798:
Results are given in words; binding and its absence hold for the method and conditions named. Some binding calls cover weakened binding; strength is not graded here.

The chains behind the UniProt entries cited, without tags or fusion partners.
UniProt P0A1P6: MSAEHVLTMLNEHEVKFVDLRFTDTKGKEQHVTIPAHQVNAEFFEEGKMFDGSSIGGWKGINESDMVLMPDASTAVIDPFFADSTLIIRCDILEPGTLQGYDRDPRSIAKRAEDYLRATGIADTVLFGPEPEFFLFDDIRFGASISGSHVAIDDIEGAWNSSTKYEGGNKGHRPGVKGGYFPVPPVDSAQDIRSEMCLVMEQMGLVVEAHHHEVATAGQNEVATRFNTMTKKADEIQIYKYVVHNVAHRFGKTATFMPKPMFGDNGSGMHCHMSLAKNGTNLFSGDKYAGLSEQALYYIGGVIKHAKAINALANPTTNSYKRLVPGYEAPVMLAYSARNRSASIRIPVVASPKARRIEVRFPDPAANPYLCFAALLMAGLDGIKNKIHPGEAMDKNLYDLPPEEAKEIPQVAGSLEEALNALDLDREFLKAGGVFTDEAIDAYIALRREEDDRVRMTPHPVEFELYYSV

Biological target: glutamine synthetase displayed on the yeast surface (UniProt P0A1P6)
Experiment: purified GS added at 100 uM to medium with yeast displaying GS, in the presence of divalent metal; aggregation seen by eye and by SEM

Question: How did the binding turn out when “glutamine synthetase, overexpressed and purified from BL21 bacteria cells (from UniProt P0A1P6 1-469) (enzyme)” was run?
Answer: binds
